According to publication doi:10.1101/2024.03.07.583918:
These are yes or no findings as the source states them, for the method shown. A result given as binding can be weak or reduced; the word gives no strength.

Target: CheR of Pectobacterium atrosepticum SCRI1043 (Pectobacterium atrosepticum SCRI1043)
Test: ITC

| Binder | binding |
| --- | --- |
| NWEKF [NWEKF pentapeptide] | binds |
| NWEQF [NWETF derivative containing Q instead of T] | binds |
